PubChem BioAssay AID1259308 – NCATS, 2017
Purpose: 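Candidate targets for better recombinant protein yield in mammalian cells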 (primary screen). Cell system: human HEK293 embryonic kidney cells stably expressing firefly luciferase (HEK-CMV-Luc2-Hygro). Reagent: single siRNA against human genes, 0.8 pmol siRNA per well. Timing: 72 h. Read-out: 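Reporter luminescence and viable-cell signal on separate replicate plates, given as percent of non-targeting control and median/MAD z-scores, plus per-cell luciferase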. Direction: total luciferase, z-score and total luciferase, % of control: higher = more reporter protein produced. Hit rule: 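An siRNA counts as active if its total luciferase robust z-score exceeds 3; genes with two or more such siRNAs out of three were retested with fresh siRNAs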. Calls: active = raised luciferase; inactive = no rise.
The whole screen tested about 59,000 reagents; this is a part drawn at random. In the full data, about 1,510 (2.6%) got an active call. 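Calls use total luciferase alone and ignore viability, so some active siRNAs may act by altering cell number.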 A number with no mark means an inactive call. Reagents against one gene are numbered here. Not all columns of the deposit are shown.

target | siRNA no. | total luciferase, z-score | total luciferase, % of control
GJC1 | 1 | -1.62 | 49.7
GJC1 | 2 | -0.475 | 72.4
GJC1 | 3 | -0.35 | 74.9
ZNF81 | 1 | -0.544 | 71.1
ZNF81 | 2 | -0.183 | 78.2
ZNF81 | 3 | -0.683 | 68.3
SURF1 | 1 | 2.53 | 132
SURF1 | 2 | -0.389 | 74.1
SURF1 | 3 | 2.16 | 125
WNT6 | 1 | -0.768 | 66.6
WNT6 | 2 | 0.159 | 85.1
WNT6 | 3 | -0.451 | 72.9
FETUB | 1 | -0.105 | 79.8
FETUB | 2 | 0.103 | 83.9
FETUB | 3 | -1.77 | 46.6
TPTE2P2 | 1 | 0.83 | 98.4
TPTE2P2 | 2 | 1.97 | 121
TPTE2P2 | 3 | 0.232 | 86.5
EXOSC5 | 1 | -0.0556 | 80.8
EXOSC5 | 2 | -1.09 | 60.2
EXOSC5 | 3 | 0.108 | 84
C19orf53 | 1 | 0.423 | 90.3
C19orf53 | 2 | 2.12 | 124
C19orf53 | 3 | 0.353 | 88.9
CC2D1A | 1 | -0.0629 | 80.6
CC2D1A | 2 | 2.33 | 128
CC2D1A | 3 | 0.68 | 95.4
PLK1 | 1 | -2.28 | 36.5
PLK1 | 2 | -2.07 | 40.7
PLK1 | 3 | -2.2 | 38.2
LOXL4 | 1 | -1.3 | 56.1
LOXL4 | 2 | 0.272 | 87.3
LOXL4 | 3 | -0.793 | 66.1
NLRP13 | 1 | -0.206 | 77.8
NLRP13 | 2 | -0.0926 | 80
NLRP13 | 3 | -2.4 | 34.1
PAXIP1 | 1 | -0.332 | 75.3
PAXIP1 | 2 | -2.33 | 35.6
PAXIP1 | 3 | 1.27 | 107
MINAR1 | 1 | -0.0611 | 80.7
MINAR1 | 2 | 1.6 | 114
MINAR1 | 3 | -2.66 | 29
PRR35 | 1 | -0.378 | 74.4
PRR35 | 2 | -0.555 | 70.8
PRR35 | 3 | 0.801 | 97.8
ANAPC5 | 1 | -0.0845 | 80.2
ANAPC5 | 2 | 0.347 | 88.8
ANAPC5 | 3 | -0.842 | 65.1
PCDH10 | 1 | -1.38 | 54.4
PCDH10 | 2 | 3.61 (active) | 154
PCDH10 | 3 | -1.04 | 61.3
CYP1A1 | 1 | -1.06 | 60.8
CYP1A1 | 2 | -0.511 | 71.7
CYP1A1 | 3 | 1.38 | 109
RPL31 | 1 | -2.83 | 25.6
RPL31 | 2 | -2.55 | 31.2
RPL31 | 3 | -2.55 | 31.2

4 of these entries in another layout.
LOXL4 #3
- total luciferase, z-score: -0.793
- total luciferase, % of control: 66.1

NLRP13 #1
- total luciferase, z-score: -0.206
- total luciferase, % of control: 77.8

NLRP13 #2
- total luciferase, z-score: -0.0926
- total luciferase, % of control: 80

NLRP13 #3
- total luciferase, z-score: -2.4
- total luciferase, % of control: 34.1
